Reference: publication PMC10435519

Target: T1, PPARα (in HEK293T cells) (UniProt Q07869)
T1 sequence: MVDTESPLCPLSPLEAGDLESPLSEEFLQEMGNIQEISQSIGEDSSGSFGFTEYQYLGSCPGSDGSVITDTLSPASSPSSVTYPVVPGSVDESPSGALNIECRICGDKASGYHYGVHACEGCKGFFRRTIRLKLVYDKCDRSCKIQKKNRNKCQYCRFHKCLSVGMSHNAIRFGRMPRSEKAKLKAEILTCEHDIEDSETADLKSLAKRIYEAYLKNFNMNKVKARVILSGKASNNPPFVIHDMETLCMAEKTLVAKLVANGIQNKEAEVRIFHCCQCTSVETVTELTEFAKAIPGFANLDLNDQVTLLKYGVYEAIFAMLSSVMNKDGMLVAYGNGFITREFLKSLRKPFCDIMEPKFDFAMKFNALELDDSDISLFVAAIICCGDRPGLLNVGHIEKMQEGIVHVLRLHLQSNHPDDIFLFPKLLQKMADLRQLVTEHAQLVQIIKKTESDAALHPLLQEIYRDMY
Experiment: co-IP; HEK293T cells co-transfected with NCoR1 (WT or T1619A/T2124A) and PAK4; co-IP and immunoblot

“NCoR1 T1619A/T2124A double-mutant (mouse)” was tested, and the binding was “binds”.

These are yes or no findings as the source states them, for the method shown. Binding seen in cells or lysates may run through a third protein. Binding calls can cover weak binding; strength is not graded here.
